Where a name gives a salt, the structure may show the parent alone. ± gives the uncertainty stated by the source. The list shows a part of the results. Plates or batches differ in their baseline, so values are only roughly comparable.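 Larvae carried a heat-shock-induced fluorescent stripe in rod outer segments, set at 6 dpf; the shedding distance runs from this stripe to the outer segment tip, measured in confocal stacks, about three fish per compound. The controls got 0.2% DMSO vehicle, and the paper flagged compounds with at least a 20% change against the same-week control and p < 0.001 (Dunnett test on mixed-effects models).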
Assays:
[1] = tested on: Danio rerio larva rod photoreceptor outer segment; test: rod outer segment growth distance Dg, difference from same-week DMSO control mean; higher = more outer segment growth; conditions: 20 µM; treatment time: 4 days (6-10 dpf)
[2] = tested on: Danio rerio larva rod photoreceptor outer segment; test: rod outer segment shedding distance Ds, difference from same-week DMSO control mean; higher = less outer segment shedding; conditions: 20 µM; treatment time: 4 days (6-10 dpf)

## NC(=O)c1ncn([C@@H]2O[C@H](CO)[C@@H](O)[C@H]2O)c1N [Acadesine]
[1]
  rod outer segment growth distance Dg: -0.11 ± 0.21 um
[2]
  rod outer segment shedding distance Ds: -0.2 ± 0.14 um

## O=C1[C@H](Cc2ccc(O)cc2)N2C(=O)CCN(C(=O)NCc3ccccc3)[C@H]2CN1Cc1cccc2ccccc12
[1]
  rod outer segment growth distance Dg: -0.62 ± 0.16 um
[2]
  rod outer segment shedding distance Ds: -0.78 ± 0.12 um

## CCCCC1C(=O)N(c2ccccc2)N(c2ccccc2)C1=O [Phenylbutazone]
[1]
  rod outer segment growth distance Dg: 0.73 ± 0.16 um
[2]
  rod outer segment shedding distance Ds: 0.49 ± 0.19 um

## O=c1c(O)c(-c2ccc(O)c(O)c2)oc2cc(O)cc(O)c12 [Quercetin Dihydrate]
[1]
  rod outer segment growth distance Dg: -3.07 ± 1.5 um
[2]
  rod outer segment shedding distance Ds: -3.75 ± 1.5 um

## Nc1nc(NCCNc2ncc(-n3ccnc3)c(-c3ccc(Cl)cc3Cl)n2)ccc1[N+](=O)[O-]
[1]
  rod outer segment growth distance Dg: -0.48 ± 0.16 um
[2]
  rod outer segment shedding distance Ds: -0.7 ± 0.11 um

## Cc1ccccc1C(=O)Nc1ccc(C(=O)N2CCCC(O)c3cc(Cl)ccc32)c(C)c1 (stereo not drawn) [Tolvaptan]
[1]
  rod outer segment growth distance Dg: -0.59 ± 0.22 um
[2]
  rod outer segment shedding distance Ds: 0.06 ± 0.15 um

## Cc1cn(-c2cc(NC(=O)c3ccc(C)c(Nc4nccc(-c5cccnc5)n4)c3)cc(C(F)(F)F)c2)cn1 [Nilotinib (AMN-107)]
[1]
  rod outer segment growth distance Dg: -0.96 ± 0.18 um
[2]
  rod outer segment shedding distance Ds: -1.01 ± 0.23 um

## CC1(C)O[C@@H]2C[C@H]3[C@@H]4CCC5=CC(=O)C=C[C@]5(C)[C@@]4(F)[C@@H](O)C[C@]3(C)[C@]2(C(=O)CO)O1 [Triamcinolone Acetonide]
[1]
  rod outer segment growth distance Dg: -0.87 ± 0.24 um
[2]
  rod outer segment shedding distance Ds: 0.21 ± 0.17 um

## O=C(O)c1cccc(-c2noc(-c3ccccc3F)n2)c1 [Ataluren (PTC124)]
[1]
  rod outer segment growth distance Dg: 0.3 ± 0.16 um
[2]
  rod outer segment shedding distance Ds: 0.18 ± 0.13 um

## C[C@@H]1O[C@@H](OC[C@H]2O[C@@H](Oc3c(-c4ccc(O)c(O)c4)oc4cc(O)cc(O)c4c3=O)[C@H](O)[C@@H](O)[C@@H]2O)[C@H](O)[C@H](O)[C@H]1O [Rutin]
[1]
  rod outer segment growth distance Dg: -0.03 ± 0.23 um
[2]
  rod outer segment shedding distance Ds: 0.58 ± 0.26 um

## COc1ccc(COc2cc3oc(=O)c4cc(C(C)O)ccc4c3cc2OC)cc1 (stereo not drawn) [Palomid 529 (P529)]
[1]
  rod outer segment growth distance Dg: -2.44 ± 0.38 um
[2]
  rod outer segment shedding distance Ds: -0.49 ± 0.36 um

## CC(C)NCC(O)c1ccc(NS(C)(=O)=O)cc1 (stereo not drawn) [Sotalol]
[1]
  rod outer segment growth distance Dg: 0.73 ± 0.23 um
[2]
  rod outer segment shedding distance Ds: -0.62 ± 0.3 um

## CN(C)c1nc(N(C)C)nc(N(C)C)n1 [Altretamine]
[1]
  rod outer segment growth distance Dg: 0.16 ± 0.15 um
[2]
  rod outer segment shedding distance Ds: -0.37 ± 0.2 um

## CC(C)CC(=O)Nc1n[nH]c2c1CN(C(=O)C1CCN(C)CC1)C2(C)C
[1]
  rod outer segment growth distance Dg: -0.01 ± 0.16 um
[2]
  rod outer segment shedding distance Ds: -0.53 ± 0.19 um

## Clc1cccc(Cl)c1NC1=NCCN1 [Clonidine HCl]
[1]
  rod outer segment growth distance Dg: 0.45 ± 0.27 um
[2]
  rod outer segment shedding distance Ds: -0.16 ± 0.23 um

## CCn1cc(C(=O)O)c(=O)c2cc(F)c(N3CCNC(C)C3)c(F)c21 (stereo not drawn) [Lomefloxacin HCl]
[1]
  rod outer segment growth distance Dg: 0.41 ± 0.23 um
[2]
  rod outer segment shedding distance Ds: -0.34 ± 0.21 um

## CN(Cc1cc(Br)cc(Br)c1N)C1CCCCC1 [Bromhexine HCl]
[1]
  rod outer segment growth distance Dg: 0.04 ± 0.77 um
[2]
  rod outer segment shedding distance Ds: -1.65 ± 0.75 um

## Cc1c(NC(=O)OC[C@@H]2COCCN2)cn2ncnc(Nc3ccc4c(cnn4Cc4cccc(F)c4)c3)c12
[1]
  rod outer segment growth distance Dg: -0.93 ± 0.18 um
[2]
  rod outer segment shedding distance Ds: -1.36 ± 0.29 um

## C[C@H](NC(=O)Cc1cc(F)cc(F)c1)C(=O)N[C@@H]1C(=O)N(C)c2ccccc2-c2ccccc21
[1]
  rod outer segment growth distance Dg: -1.42 ± 0.19 um
[2]
  rod outer segment shedding distance Ds: -1.03 ± 0.14 um

## O=c1cc(-c2ccccc2)oc2cc(O)c(O)c(O)c12 [Baicalein]
[1]
  rod outer segment growth distance Dg: -0.23 ± 0.21 um
[2]
  rod outer segment shedding distance Ds: 0.58 ± 0.34 um

## Cc1cc(C(C)(C)C)cc(C)c1CC1=NCCN1 [Xylometazoline HCl]
[1]
  rod outer segment growth distance Dg: -0.32 ± 0.29 um
[2]
  rod outer segment shedding distance Ds: -0.66 ± 0.17 um

## Cc1cn([C@H]2O[C@@H](CO)[C@H](O)[C@H]2F)c(=O)[nH]c1=O [Clevudine]
[1]
  rod outer segment growth distance Dg: -1.15 ± 0.24 um
[2]
  rod outer segment shedding distance Ds: -0.48 ± 0.18 um

## CN(C)CC/C=C1/c2ccccc2COc2ccc(CC(=O)O)cc21 [Olopatadine HCl]
[1]
  rod outer segment growth distance Dg: 0.82 ± 0.3 um
[2]
  rod outer segment shedding distance Ds: -0.19 ± 0.3 um

## O=c1[nH]cc(F)c(=O)[nH]1 [Fluorouracil (5-Fluoracil, 5-FU)]
[1]
  rod outer segment growth distance Dg: -0.02 ± 0.22 um
[2]
  rod outer segment shedding distance Ds: -2.47 ± 0.31 um

## Cc1ccccc1CN1C2=NCCN2C(=O)C2=C1CCN(Cc1ccccc1)C2
[1]
  rod outer segment growth distance Dg: -1.15 ± 0.2 um
[2]
  rod outer segment shedding distance Ds: 0.55 ± 0.24 um

## CCC[C@@H]1C[C@@H](C(=O)N[C@@H]([C@H]2O[C@H](SC)[C@H](O)[C@@H](O)[C@H]2O)[C@@H](C)O)N(C)C1 [Lincomycin HCl]
[1]
  rod outer segment growth distance Dg: 1.32 ± 0.23 um
[2]
  rod outer segment shedding distance Ds: 0.55 ± 0.26 um

## CC1=NN(c2ccccc2)C(=O)C1 [Edaravone]
[1]
  rod outer segment growth distance Dg: 0.47 ± 0.17 um
[2]
  rod outer segment shedding distance Ds: -0.53 ± 0.19 um

## CC(C)C(=O)Oc1ccc(CO)cc1[C@H](CCN(C(C)C)C(C)C)c1ccccc1 [Fesoterodine Fumarate]
[1]
  rod outer segment growth distance Dg: 0.33 ± 0.27 um
[2]
  rod outer segment shedding distance Ds: 0 ± 0.28 um

## C[C@@H](O[C@H]1OCCN(Cc2n[nH]c(=O)[nH]2)[C@H]1c1ccc(F)cc1)c1cc(C(F)(F)F)cc(C(F)(F)F)c1 [Aprepitant]
[1]
  rod outer segment growth distance Dg: -0.17 ± 0.18 um
[2]
  rod outer segment shedding distance Ds: -1.39 ± 0.23 um

## C[C@H](N[C@@H](CCc1ccccc1)C(=O)O)C(=O)N1CCC[C@H]1C(=O)O [Enalaprilat Dihydrate]
[1]
  rod outer segment growth distance Dg: -0.2 ± 0.18 um
[2]
  rod outer segment shedding distance Ds: 0.18 ± 0.19 um

## Nc1ccc(C(=O)NCC(=O)O)cc1 [4-Aminohippuric Acid]
[1]
  rod outer segment growth distance Dg: 0.01 ± 0.18 um
[2]
  rod outer segment shedding distance Ds: 0.01 ± 0.1 um

## N#C/C(=C\c1ccc(O)c(O)c1)C(=O)NCc1ccccc1 [AG-490 (Tyrphostin B42)]
[1]
  rod outer segment growth distance Dg: -0.97 ± 0.17 um
[2]
  rod outer segment shedding distance Ds: -0.46 ± 0.18 um

## Cc1ccc(NC(=O)C2(c3ccc4c(c3)OC(F)(F)O4)CC2)nc1-c1cccc(C(=O)O)c1 [VX-809 (Lumacaftor)]
[1]
  rod outer segment growth distance Dg: -0.62 ± 0.21 um
[2]
  rod outer segment shedding distance Ds: -0.7 ± 0.2 um

## OCCN(CCO)c1nc(N2CCCCC2)c2nc(N(CCO)CCO)nc(N3CCCCC3)c2n1 [Dipyridamole]
[1]
  rod outer segment growth distance Dg: 0.51 ± 0.17 um
[2]
  rod outer segment shedding distance Ds: -0.21 ± 0.22 um
